Reference: the supplement of paper PMC12889115
The other results are listed elsewhere or left out. Values are raw readings; no control value is given beside them.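 Primary screen: polymyxin B was added at a level permeabilizing Salmonella outer membranes while sparing inner membranes. DMSO wells, both with and without polymyxin B, established maximum growth. Plate-to-plate variation meant each plate was ranked on its own, and the lowest-OD600 compounds were selected as hits.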

Tested on: Salmonella enterica serovar Typhimurium SL1344
Assay: bacterial growth OD600 after 18 h with compound and polymyxin B; higher = more bacterial growth (less inhibition)
Conditions: 50 µM, Mueller-Hinton broth

SMILES | bacterial growth OD600 (polymyxin B 1 µg/mL) | bacterial growth OD600 (polymyxin B 0.75 µg/mL)
CCCCN(C)Cc1cnc(S(=O)(=O)Cc2ccccc2)n1CC(C)C | 0.615 | –
COc1ccc(-n2cc(CNC3CCN(C)CC3)c(-c3cccc(F)c3)n2)cc1 | 0.808 | –
Cc1nc(N2CCC(C(=O)NCC(C)(C)N3CCOCC3)CC2)nc2ccc(C(C)C)cc12 | – | 0.947
O=C1CCCN1CC(=O)N1CCc2[nH]nc(-c3ccc(C(F)(F)F)cc3)c2C1 | – | 0.599
Fc1ccc(Oc2ncccc2CNc2ncccn2)c(F)c1 | – | 0.879
CC(C)CC(=O)NC1CC(C)(C)Cc2nc(N3CCOCC3)ncc21 (stereo not given) | – | 0.884
C=C(C)CN(CC)C(=O)c1ccc(OC2CCN(C(=O)CCOC)CC2)cc1 | 0.858 | –
COC(=O)C1CCCCN1C(=O)CCc1nnc(CCc2ccccc2OC)o1 (stereo not given) | 1.15 | –
O=C(c1sccc1Cl)N1CCOc2ccc(CN3CCN(c4ncccn4)CC3)cc2C1 | – | 0.766
O=C1CC(NC2CCSCC2)CN1CCc1ccccc1 (stereo not given) | 0.963 | –
Cc1ccccc1-c1cccc(CN2CCCC(CCC(=O)N3CCOCC3)C2)c1 (stereo not given) | 0.874 | –
O=C(c1ccc(-c2ccco2)cc1)N1CCC2(CC1)CC2C(=O)N1CCN(c2ccccn2)CC1 (stereo not given) | – | 0.843
COCCN1C(=O)CC(CC(=O)N(C)CC23CC4CC(CC(C4)C2)C3)(c2ccccc2Cl)C1=O (stereo not given) | – | 0.505
COC(=O)CNC1CCN(c2ccc(C(=O)NCCN3CCOCC3)cc2)CC1 | – | 1.01
CC#CCN1C(=O)NC(CCc2ccccc2)(C2CCN(C(=O)C3CCCCC3)CC2)C1=O (stereo not given) | – | 0.893
COCC1CCCN(C(=O)c2cc(COc3cccc(C(F)(F)F)c3)on2)C1 (stereo not given) | 0.016 | –
COCC1CCN(CC2(O)CCCN(Cc3cccc(F)c3F)C2=O)CC1 (stereo not given) | 0.915 | –
CCOC(=O)C1(Cc2ccccc2C(F)(F)F)CCN(Cc2cn(C)nc2C)CC1 | 0.892 | –
COc1cccc(CC2(CCC(=O)N3CCC(c4nc5ccccc5o4)CC3)CCC(=O)N2)c1 (stereo not given) | – | 0.826
CCN(CC)c1ccc(C(=O)NCCC2CCCCN2C)cn1 (stereo not given) | 0.956 | –
CC1(C)Cc2nc(N3CCOCC3)ncc2C(NC(=O)C2CCC2)C1 (stereo not given) | – | 0.829
COCCN1C(=O)CC(CC(=O)N2CCCC(OCc3ccccc3)C2)(c2ccccc2F)C1=O (stereo not given) | – | 0.794
CCC1CN(CCNC(=O)c2ccc(C(C)=O)s2)Cc2cc(OC)ccc2O1 (stereo not given) | – | 0.95
CN(C)CCN(CC1CCCN(Cc2ccccc2F)C1)C(=O)c1ccsc1 (stereo not given) | – | 0.824
CC(=O)N1CCC(Oc2ccc(Cl)cc2C(=O)N2CCN(CC3CC3)CC2)CC1 | 0.914 | –
CCOC(=O)N1CCC(N2CCCC(Nc3ccccc3)C2)CC1 (stereo not given) | 0.895 | –
CC(C)c1ccc(CN2CCCC3(CCN(S(=O)(=O)C(C)C)C3)C2=O)cc1 (stereo not given) | 0.824 | –
O=C(NCC1CC1)C1CCCN(C2CCN(c3nc4ccccc4o3)CC2)C1 (stereo not given) | – | 0.774
O=C1NCCCC[C@@H]1Nc1ccc(-c2nc(-c3cccc(Cl)c3)no2)cn1 | – | 0.007
CCOC(=O)N1CCN(C(=O)c2ccc(N3CCC(NCC(C)C)CC3)cc2)CC1 | – | 0.846

Random excerpt: 2 entries already listed
SMILES | bacterial growth OD600 (polymyxin B 1 µg/mL) | bacterial growth OD600 (polymyxin B 0.75 µg/mL)
Cc1ccccc1-c1cccc(CN2CCCC(CCC(=O)N3CCOCC3)C2)c1 (stereo not given) | 0.874 | –
CC#CCN1C(=O)NC(CCc2ccccc2)(C2CCN(C(=O)C3CCCCC3)CC2)C1=O (stereo not given) | – | 0.893
